Assay results as given in paper PMC10914751.
No constants are given. Whether binding was seen depends on the method and setting. Binding seen in cells or lysates may run through a third protein. These calls come from enrichment with a bait or labelling near it, and not all partners need be listed. No binding means not detected with the bait. Where a sequence is shown, tags or fusion partners need not be part of it.

Sequences of proteins named here, by UniProt entry; tags and fusion partners are left off.
UniProt Q16531: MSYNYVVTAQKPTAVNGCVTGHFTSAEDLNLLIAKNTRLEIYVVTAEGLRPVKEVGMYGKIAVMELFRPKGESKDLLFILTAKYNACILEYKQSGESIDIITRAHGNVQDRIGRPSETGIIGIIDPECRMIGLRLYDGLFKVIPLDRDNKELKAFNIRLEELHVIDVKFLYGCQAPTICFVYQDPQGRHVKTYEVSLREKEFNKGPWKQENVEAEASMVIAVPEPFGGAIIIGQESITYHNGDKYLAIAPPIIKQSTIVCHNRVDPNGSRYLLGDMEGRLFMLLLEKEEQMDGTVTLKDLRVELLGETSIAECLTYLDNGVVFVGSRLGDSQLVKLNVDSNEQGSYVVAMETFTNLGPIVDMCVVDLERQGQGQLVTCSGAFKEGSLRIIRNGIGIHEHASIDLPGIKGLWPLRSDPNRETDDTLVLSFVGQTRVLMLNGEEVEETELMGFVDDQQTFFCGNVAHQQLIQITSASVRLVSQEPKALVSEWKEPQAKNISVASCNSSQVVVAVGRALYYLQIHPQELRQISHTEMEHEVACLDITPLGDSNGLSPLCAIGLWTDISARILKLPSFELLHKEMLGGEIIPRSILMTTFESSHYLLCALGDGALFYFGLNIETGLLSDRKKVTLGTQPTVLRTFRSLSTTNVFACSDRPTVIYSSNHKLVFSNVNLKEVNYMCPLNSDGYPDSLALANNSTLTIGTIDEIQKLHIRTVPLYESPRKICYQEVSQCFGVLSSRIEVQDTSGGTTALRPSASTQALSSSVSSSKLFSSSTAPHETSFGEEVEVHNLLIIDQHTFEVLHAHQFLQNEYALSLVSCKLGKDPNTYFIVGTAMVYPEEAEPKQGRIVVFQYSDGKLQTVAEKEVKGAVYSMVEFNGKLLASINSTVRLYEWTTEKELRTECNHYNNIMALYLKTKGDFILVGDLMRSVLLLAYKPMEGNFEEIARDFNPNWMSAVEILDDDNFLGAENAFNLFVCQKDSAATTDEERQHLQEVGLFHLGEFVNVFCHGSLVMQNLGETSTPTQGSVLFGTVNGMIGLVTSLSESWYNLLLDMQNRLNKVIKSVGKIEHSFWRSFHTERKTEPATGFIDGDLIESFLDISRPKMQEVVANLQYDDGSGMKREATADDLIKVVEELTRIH
UniProt Q13620: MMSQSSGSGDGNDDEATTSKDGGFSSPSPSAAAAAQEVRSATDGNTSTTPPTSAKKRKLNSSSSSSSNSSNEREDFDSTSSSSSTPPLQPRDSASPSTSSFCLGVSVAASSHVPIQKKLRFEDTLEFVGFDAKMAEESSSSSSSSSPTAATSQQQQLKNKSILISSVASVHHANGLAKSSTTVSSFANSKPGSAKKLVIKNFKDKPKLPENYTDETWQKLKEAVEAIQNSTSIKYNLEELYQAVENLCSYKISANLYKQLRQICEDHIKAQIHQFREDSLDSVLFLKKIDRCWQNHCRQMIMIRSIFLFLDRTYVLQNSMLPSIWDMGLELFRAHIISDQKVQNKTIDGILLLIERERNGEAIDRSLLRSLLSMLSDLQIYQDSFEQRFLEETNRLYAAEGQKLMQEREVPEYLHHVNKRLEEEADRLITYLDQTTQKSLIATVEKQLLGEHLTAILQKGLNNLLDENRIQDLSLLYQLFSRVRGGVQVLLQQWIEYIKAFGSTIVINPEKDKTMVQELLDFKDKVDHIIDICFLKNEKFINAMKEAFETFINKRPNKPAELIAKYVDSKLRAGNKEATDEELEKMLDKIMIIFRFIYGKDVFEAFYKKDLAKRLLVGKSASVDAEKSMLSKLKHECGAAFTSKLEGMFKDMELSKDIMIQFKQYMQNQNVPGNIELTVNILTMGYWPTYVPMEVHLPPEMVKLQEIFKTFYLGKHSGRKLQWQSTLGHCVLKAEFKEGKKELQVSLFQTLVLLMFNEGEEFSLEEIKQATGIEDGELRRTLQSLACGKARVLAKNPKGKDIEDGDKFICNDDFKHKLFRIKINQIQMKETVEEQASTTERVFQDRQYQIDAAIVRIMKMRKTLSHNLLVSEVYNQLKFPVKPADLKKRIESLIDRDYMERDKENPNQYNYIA
UniProt O94986: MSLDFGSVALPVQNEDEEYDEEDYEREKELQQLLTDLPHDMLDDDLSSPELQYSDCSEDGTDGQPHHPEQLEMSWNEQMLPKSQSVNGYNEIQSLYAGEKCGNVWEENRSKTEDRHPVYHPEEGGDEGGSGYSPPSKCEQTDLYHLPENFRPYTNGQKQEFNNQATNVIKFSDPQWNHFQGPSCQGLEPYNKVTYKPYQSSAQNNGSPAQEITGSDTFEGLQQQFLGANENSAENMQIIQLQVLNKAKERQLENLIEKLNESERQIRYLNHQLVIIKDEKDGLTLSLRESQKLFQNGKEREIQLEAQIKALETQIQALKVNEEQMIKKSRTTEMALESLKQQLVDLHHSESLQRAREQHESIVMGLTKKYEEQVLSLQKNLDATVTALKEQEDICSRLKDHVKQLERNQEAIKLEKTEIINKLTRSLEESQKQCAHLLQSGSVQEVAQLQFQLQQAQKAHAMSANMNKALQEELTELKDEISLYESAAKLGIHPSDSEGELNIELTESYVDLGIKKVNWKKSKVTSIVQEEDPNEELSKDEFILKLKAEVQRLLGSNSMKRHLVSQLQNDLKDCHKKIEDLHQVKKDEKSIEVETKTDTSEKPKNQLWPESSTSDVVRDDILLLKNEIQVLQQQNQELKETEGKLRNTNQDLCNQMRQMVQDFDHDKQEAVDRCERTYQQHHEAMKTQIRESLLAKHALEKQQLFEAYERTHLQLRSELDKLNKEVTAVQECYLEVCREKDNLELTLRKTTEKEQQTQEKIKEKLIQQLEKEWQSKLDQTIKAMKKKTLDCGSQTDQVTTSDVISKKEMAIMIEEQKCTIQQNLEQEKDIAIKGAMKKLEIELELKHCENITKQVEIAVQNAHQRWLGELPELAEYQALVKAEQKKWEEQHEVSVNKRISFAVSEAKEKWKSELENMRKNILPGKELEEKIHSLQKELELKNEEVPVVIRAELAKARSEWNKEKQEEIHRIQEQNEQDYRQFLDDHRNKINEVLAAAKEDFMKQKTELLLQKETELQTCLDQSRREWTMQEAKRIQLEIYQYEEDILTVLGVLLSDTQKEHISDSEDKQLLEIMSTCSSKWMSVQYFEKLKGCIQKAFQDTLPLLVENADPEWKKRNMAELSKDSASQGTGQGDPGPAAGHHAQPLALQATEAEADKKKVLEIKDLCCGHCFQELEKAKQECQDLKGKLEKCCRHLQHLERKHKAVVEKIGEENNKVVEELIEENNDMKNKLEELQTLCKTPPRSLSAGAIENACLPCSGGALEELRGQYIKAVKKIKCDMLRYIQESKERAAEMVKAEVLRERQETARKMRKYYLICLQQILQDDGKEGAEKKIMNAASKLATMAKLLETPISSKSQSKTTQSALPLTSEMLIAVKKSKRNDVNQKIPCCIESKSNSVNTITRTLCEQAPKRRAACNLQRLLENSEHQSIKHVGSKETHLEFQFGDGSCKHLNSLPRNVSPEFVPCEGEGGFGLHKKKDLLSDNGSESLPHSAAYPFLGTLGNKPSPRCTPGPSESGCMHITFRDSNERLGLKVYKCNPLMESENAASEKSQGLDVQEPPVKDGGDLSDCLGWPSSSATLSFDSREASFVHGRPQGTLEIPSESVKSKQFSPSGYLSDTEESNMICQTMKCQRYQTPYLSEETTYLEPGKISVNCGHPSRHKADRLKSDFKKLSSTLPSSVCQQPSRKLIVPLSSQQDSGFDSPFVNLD
UniProt Q13619: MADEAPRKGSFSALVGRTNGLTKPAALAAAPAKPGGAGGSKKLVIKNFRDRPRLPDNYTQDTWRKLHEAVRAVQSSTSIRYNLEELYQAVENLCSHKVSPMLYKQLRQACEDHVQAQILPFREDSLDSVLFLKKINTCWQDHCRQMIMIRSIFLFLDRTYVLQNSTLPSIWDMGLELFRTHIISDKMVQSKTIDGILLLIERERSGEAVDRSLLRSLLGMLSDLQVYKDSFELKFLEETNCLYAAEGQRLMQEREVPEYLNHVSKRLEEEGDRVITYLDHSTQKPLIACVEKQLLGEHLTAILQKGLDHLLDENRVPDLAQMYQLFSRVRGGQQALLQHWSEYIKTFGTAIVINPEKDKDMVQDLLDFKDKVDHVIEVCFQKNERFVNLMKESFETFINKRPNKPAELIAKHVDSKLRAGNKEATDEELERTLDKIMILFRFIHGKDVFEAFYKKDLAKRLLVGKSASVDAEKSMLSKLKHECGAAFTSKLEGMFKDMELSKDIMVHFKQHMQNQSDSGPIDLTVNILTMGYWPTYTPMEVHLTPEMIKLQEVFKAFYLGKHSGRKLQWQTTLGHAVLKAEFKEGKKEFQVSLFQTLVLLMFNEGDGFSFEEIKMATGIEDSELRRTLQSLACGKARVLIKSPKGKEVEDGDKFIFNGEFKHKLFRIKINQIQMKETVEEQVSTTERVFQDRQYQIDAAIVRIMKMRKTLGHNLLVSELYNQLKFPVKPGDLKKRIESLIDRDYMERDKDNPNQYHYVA
UniProt Q9Y4B6: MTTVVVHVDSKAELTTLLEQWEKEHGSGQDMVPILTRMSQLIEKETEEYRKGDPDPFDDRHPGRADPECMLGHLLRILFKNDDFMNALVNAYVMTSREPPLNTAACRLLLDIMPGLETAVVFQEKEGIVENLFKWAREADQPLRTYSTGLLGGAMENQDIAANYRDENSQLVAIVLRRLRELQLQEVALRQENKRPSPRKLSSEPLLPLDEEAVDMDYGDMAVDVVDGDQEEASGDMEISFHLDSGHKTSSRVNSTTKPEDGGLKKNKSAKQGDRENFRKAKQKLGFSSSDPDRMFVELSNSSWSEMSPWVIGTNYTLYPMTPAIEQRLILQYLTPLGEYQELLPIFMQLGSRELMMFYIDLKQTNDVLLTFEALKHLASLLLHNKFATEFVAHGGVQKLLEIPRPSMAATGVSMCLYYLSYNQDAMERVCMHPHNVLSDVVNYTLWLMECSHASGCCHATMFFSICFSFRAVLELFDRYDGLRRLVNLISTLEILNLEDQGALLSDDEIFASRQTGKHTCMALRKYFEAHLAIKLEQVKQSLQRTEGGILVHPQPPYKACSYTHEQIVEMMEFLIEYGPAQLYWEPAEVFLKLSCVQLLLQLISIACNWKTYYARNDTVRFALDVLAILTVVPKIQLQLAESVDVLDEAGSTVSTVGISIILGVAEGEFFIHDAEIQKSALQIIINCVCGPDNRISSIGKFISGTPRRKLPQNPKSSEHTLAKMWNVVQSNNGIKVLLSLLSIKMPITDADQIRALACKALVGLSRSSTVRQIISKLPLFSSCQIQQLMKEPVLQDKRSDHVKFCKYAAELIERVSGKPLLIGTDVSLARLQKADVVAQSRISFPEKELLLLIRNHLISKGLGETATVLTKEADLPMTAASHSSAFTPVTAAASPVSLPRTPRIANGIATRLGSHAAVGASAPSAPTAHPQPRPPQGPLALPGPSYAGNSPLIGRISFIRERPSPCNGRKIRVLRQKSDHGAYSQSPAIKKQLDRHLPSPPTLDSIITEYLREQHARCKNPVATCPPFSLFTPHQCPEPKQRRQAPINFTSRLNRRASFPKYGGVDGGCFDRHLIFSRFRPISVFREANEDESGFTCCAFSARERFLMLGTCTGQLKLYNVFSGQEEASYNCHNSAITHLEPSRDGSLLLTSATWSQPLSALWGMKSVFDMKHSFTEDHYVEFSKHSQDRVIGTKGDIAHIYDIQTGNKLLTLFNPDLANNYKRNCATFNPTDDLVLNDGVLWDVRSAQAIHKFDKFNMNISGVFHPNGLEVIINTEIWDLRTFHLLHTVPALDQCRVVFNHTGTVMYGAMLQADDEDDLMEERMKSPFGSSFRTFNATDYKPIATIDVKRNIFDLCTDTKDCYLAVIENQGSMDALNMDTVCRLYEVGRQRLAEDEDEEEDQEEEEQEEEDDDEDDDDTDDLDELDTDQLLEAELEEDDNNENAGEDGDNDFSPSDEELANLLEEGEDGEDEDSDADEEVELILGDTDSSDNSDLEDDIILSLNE

Legend:
[1] = biological target: T1, ZZ-tagged Plk4 CPB (581–884) (UniProt O00444); assay: affinity purification with mass spectrometry; ZZ-tagged Plk4 CPB(581–884) in lysate of transfected HEK293T cells, human IgG column, AcTEV digestion, elution with TBSN buffer; SDS-PAGE bands, nanoLC-tandem MS (Expt. 1)
T1 sequence: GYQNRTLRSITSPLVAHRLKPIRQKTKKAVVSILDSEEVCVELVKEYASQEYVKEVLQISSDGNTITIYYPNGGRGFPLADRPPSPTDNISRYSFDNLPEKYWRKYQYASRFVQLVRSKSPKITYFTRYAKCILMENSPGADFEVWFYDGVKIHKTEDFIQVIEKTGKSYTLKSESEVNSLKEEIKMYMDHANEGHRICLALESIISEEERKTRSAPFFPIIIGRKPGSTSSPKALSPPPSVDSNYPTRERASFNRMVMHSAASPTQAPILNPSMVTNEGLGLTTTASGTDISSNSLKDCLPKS

[2] = biological target: T2, FLAG-tagged Plk4 CTD (581–970) (UniProt O00444); assay: affinity purification with mass spectrometry; FLAG-tagged Plk4 CTD(581–970) stably expressed in HEK293T cells, anti-FLAG immunoprecipitation; SDS-PAGE bands, nanoLC-tandem MS (Expt. 2)
T2 sequence: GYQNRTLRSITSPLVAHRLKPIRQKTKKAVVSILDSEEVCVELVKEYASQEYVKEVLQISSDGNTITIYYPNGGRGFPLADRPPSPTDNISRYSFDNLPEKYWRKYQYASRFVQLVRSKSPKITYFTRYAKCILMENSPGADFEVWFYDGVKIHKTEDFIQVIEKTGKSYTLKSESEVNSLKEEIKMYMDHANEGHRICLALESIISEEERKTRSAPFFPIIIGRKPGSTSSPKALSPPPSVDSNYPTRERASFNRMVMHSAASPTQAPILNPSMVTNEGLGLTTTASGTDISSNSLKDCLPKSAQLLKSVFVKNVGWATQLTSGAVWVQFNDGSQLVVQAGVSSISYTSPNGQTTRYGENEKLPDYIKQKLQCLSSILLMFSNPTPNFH

Substance	binding [1]	binding [2]
DDB1 (endogenous) (from UniProt Q16531 1-1140)	binds	binds
CUL4B (endogenous) (from UniProt Q13620 1-913)	no binding	no binding
Cep152 (endogenous) (from UniProt O94986 1-1710)	binds	binds
CUL4A (endogenous) (from UniProt Q13619 1-759)	no binding	no binding
VprBP (endogenous) (from UniProt Q9Y4B6 1-1507)	binds	binds
